No constants are given. Whether binding was seen depends on the method and setting. Binding seen in cells or lysates may run through a third protein. Some binding calls cover weakened binding; strength is not graded here.
Key:
[1] = target: FLAG-CLASPIN N-terminus (1-330 AAs) (UniProt Q9HAW4); experiment: co-IP; lysates of 293T cells co-transfected with MYC-USP20 and FLAG-CLASPIN or its fragments; anti-FLAG immunoprecipitation, anti-MYC immunoblot
FLAG-CLASPIN = FLAG-CLASPIN (UniProt Q9HAW4); experiment: as above
[2] = target: USP20 (endogenous) (human (endogenous in 293T)) (UniProt Q9Y2K6); experiment: co-IP; total lysates of 293T cells, endogenous proteins; immunoprecipitation with anti-USP20, anti-HERC2 or anti-ATR antibody, immunoblotting; for HERC2-USP20 also mock or HU (2 mM) treatment for 3 h
FLAG-USP20 = FLAG-USP20 (UniProt Q9Y2K6); experiment: co-IP; 293T cells expressing FLAG-USP20 or FLAG-USP20(4SA), treated with HU for 3 h or not; FLAG-USP20 immunocomplex blotted for HERC2
[3] = target: HERC2 (endogenous) (human (endogenous in 293T)) (UniProt O95714); experiment: co-IP; total lysates of 293T cells, endogenous proteins; immunoprecipitation with anti-USP20, anti-HERC2 or anti-ATR antibody, immunoblotting; for HERC2-USP20 also mock or HU (2 mM) treatment for 3 h
[4] = target: ATR (ataxia telangiectasia and Rad3-related protein) (human (endogenous in 293T)) (UniProt Q13535); experiment: as above

Sequences of proteins named here, by UniProt entry; tags and fusion partners are left off. A change or cut given only in a name is not applied to a line headed by its entry. Residues count along the entry.
UniProt Q9HAW4: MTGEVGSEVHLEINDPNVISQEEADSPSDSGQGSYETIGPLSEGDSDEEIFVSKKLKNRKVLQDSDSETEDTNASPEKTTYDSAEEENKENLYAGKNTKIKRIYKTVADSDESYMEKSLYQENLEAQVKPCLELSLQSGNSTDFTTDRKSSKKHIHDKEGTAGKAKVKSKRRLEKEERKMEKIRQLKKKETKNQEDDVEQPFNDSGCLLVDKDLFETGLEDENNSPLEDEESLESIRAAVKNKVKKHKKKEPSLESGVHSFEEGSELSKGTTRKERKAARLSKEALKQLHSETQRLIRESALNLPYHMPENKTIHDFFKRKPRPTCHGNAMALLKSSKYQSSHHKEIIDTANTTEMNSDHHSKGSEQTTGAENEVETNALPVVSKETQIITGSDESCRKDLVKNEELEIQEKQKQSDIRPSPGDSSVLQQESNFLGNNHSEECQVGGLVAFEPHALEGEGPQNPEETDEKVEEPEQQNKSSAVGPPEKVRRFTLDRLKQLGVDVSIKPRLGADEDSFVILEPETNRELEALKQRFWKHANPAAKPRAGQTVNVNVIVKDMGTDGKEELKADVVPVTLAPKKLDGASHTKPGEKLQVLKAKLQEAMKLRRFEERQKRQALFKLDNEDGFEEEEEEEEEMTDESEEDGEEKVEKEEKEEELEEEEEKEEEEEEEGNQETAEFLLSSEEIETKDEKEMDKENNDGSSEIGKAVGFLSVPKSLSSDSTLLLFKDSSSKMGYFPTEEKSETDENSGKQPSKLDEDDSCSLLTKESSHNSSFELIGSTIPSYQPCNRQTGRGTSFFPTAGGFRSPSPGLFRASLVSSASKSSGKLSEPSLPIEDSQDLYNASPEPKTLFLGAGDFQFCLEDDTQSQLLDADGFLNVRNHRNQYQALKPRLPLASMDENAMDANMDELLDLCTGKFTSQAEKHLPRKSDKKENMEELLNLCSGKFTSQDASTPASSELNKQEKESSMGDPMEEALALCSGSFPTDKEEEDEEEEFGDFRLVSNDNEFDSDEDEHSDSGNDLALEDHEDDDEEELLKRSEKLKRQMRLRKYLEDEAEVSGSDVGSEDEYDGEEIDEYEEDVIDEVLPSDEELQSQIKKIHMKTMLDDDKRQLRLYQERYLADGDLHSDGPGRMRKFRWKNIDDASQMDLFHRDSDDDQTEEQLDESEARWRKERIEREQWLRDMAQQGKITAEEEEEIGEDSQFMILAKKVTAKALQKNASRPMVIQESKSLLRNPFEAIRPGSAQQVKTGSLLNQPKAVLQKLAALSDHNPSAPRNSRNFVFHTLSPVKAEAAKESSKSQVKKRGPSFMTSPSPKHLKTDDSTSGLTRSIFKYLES
FLAG-CLASPIN N-terminus (1-330 AAs): residues 1-330 of Q9HAW4
UniProt O95714: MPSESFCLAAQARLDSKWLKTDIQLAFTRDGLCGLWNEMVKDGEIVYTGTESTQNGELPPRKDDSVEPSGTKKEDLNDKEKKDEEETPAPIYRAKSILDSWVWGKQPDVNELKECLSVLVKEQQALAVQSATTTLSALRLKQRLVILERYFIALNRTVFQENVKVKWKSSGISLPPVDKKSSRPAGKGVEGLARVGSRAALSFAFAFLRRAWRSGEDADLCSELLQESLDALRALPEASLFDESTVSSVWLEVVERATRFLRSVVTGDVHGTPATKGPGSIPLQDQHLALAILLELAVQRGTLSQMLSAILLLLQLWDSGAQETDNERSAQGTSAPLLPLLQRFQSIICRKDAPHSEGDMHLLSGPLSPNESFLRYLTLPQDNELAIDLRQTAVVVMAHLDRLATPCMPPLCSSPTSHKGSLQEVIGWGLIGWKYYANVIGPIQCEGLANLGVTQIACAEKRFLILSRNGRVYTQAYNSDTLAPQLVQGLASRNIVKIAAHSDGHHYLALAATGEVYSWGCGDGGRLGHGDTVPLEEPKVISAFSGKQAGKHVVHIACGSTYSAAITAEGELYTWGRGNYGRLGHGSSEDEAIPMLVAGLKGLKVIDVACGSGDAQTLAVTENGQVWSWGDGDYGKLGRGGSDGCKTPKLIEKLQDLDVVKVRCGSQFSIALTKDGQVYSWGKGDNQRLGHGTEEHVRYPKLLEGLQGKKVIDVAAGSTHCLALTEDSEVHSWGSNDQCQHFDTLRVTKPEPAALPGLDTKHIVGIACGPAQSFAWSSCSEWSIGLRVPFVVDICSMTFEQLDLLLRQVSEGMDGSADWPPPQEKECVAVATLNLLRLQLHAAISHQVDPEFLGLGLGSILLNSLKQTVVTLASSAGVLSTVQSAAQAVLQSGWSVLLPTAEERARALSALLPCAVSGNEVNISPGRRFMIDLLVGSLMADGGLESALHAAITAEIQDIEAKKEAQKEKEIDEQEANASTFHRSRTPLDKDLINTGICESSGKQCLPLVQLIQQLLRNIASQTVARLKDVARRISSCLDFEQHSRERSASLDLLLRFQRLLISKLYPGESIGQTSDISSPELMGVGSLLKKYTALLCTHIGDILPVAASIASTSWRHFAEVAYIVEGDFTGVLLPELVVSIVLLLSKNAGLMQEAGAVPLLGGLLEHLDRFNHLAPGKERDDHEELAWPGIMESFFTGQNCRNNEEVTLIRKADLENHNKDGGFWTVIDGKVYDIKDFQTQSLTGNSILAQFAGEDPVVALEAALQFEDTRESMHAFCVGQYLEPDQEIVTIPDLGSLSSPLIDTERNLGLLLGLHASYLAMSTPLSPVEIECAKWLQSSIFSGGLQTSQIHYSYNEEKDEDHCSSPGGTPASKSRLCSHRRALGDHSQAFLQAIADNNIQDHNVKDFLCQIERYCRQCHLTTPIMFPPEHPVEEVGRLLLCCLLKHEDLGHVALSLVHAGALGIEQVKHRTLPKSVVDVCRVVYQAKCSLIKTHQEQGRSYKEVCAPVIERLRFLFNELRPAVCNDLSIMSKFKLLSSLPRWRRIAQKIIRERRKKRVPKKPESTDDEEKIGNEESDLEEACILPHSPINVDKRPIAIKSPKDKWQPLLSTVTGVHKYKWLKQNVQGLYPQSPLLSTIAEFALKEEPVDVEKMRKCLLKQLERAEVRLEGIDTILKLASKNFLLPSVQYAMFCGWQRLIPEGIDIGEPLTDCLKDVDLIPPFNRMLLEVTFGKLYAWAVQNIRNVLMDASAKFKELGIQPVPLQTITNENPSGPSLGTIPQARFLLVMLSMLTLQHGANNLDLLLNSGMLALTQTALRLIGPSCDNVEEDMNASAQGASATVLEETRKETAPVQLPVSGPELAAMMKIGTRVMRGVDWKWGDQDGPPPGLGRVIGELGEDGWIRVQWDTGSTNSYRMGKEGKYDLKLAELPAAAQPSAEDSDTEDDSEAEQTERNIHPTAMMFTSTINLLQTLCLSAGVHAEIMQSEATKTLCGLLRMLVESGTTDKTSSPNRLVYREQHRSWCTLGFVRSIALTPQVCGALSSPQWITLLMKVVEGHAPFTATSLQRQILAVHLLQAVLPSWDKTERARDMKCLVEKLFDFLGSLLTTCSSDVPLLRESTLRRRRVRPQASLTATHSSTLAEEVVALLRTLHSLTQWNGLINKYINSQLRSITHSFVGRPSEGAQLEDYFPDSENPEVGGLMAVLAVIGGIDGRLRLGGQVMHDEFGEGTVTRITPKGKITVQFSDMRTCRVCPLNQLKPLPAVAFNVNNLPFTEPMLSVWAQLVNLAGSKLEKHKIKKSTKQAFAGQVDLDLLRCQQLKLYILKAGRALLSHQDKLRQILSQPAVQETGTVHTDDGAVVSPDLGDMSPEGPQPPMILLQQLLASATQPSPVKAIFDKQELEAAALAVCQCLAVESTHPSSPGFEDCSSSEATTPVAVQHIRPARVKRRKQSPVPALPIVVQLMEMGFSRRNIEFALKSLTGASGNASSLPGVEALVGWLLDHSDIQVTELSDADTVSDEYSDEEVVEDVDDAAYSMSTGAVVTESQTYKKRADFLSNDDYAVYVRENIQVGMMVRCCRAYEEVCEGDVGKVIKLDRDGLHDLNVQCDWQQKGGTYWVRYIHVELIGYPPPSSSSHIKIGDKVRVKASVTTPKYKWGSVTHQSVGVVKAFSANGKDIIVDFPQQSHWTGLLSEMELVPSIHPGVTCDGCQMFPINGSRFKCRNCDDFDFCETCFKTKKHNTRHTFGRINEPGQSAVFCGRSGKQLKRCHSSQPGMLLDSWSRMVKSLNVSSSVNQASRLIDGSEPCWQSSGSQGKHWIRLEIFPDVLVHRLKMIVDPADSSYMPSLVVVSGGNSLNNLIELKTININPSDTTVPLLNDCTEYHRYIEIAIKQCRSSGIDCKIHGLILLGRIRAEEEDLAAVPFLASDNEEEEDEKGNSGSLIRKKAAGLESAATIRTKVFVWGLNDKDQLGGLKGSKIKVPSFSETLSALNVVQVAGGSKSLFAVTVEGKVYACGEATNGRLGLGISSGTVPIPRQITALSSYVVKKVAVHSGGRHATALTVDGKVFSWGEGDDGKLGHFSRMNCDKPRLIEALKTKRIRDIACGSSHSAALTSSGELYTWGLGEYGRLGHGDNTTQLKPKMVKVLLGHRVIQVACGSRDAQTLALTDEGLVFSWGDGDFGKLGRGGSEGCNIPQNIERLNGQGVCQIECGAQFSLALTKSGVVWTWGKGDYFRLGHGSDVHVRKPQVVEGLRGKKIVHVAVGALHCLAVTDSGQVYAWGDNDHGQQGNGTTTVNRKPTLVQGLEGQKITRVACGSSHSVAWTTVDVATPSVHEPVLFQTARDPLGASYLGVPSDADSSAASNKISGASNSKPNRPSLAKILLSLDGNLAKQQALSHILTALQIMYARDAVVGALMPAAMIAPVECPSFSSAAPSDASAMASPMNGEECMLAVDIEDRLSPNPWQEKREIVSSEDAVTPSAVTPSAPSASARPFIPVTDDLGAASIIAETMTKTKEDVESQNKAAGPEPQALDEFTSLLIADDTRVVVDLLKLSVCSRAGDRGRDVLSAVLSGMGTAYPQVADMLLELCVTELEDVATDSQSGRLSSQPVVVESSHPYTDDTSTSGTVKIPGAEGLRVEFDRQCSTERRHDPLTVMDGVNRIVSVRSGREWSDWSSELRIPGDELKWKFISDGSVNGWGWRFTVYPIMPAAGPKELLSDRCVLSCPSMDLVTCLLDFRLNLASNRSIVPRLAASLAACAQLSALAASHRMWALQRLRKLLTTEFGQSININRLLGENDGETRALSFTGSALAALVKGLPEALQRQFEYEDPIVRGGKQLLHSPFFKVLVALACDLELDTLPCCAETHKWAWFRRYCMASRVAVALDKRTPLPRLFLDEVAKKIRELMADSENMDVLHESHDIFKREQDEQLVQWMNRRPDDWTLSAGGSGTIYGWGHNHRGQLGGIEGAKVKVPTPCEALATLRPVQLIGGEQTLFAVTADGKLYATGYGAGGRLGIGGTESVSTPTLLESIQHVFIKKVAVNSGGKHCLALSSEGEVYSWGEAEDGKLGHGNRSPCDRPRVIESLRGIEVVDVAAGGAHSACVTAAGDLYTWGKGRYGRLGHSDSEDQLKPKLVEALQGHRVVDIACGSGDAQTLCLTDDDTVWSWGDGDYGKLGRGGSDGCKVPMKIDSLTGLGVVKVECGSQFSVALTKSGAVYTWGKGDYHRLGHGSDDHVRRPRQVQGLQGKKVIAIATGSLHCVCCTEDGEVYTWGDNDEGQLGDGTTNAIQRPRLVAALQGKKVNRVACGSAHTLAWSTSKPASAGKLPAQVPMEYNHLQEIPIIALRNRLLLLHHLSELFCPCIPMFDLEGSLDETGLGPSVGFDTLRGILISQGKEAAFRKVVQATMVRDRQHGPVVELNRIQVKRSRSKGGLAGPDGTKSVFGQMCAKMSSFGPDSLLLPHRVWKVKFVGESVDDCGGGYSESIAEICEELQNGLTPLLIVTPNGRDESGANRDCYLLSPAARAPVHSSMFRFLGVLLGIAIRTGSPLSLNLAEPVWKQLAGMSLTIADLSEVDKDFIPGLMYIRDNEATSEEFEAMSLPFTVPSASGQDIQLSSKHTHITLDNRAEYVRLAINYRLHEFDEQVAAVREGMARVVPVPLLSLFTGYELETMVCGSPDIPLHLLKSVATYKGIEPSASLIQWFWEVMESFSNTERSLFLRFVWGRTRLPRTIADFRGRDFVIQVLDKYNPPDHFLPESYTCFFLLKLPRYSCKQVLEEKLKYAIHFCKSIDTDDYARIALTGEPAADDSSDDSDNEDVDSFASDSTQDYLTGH

Substance | binding [2] | binding [3] | further results
MYC-USP20 (from UniProt Q9Y2K6 1-914) (enzyme) | – | – | binding [1]: binds; binding (FLAG-CLASPIN): binds
HERC2 (endogenous) (from UniProt O95714 1-4834) (enzyme) | binds | – | binding (FLAG-USP20): binds
CLASPIN (endogenous) (from UniProt Q9HAW4 1-1339) | binds | binds | –
USP20 (endogenous) (from UniProt Q9Y2K6 1-914) (enzyme) | – | binds | binding [4]: binds
